Four substances from patent US5359138A (Zaidan Hojin Biseibutsu Kagaku Kenkyu KaI, priority 1989, dated 1994) can be followed below.

The data set is described as follows: peptide synthesis.

“Boc-L-valyl-(2R, 3S)-3-amino-2-hydroxy-pentanoyl-D-leucyl-L-valine benzyl ester” came in with a step yield (coupling step) of 82.8%.

Where the note is “coupling step”, “Z-L-valyl-L-valyl-(2R, 3S)-3-amino-2-hydroxy-pentanoyl-D-leucyl-L-valine benzyl ester” yielded a step yield of 79.7%.

As for “Z-L-valyl-L-valyl-(3S)-3-amino-2-oxo-pentanoyl-D-leucyl-L-valine benzyl ester”, the step yield (late stage modification step) is recorded as 58.6%.

Regarding “poststatin(L-valyl-L-valyl-(3S)-3-amino-2-oxo-pentanoyl-D-leucyl-L-valyl)”, under “late stage modification step”, the difficulty met entry is “separated from the unreacted material and a partially epimerized substance”; the step yield was found to be 21.7%.
